# PubChem BioAssay AID1458 (National Center for Advancing Translational Sciences (NCATS), 2008)
# Among all 210,000 compounds or so, about 5,900 (2.8%) were called active. Another 5% or so got no clear call; they are omitted. The call rests on the fitted dose curve; in most records, active means well fitted activation curve with a large enough effect; inconclusive means small, poorly fitted or top-dose-only effect; inactive means no such curve, though single readings can be large or run the other way. The entries are a selection whose mix differs from that of the whole data set. Entries without a call were filed so in the source.
# Assay: qHTS Assay for Enhancers of SMN2 Splice Variant Expression; further: nearly all actives have a fitted effect of over 55% in size; on activity change, positive = activation: % of control where 0% means no effect
# Details: HEK293 SMN2-luciferase splicing reporter, luminescence, 30-36 h; activity change, positive = activation: at 46.1 µM (top of the series) unless noted
# How it was run: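 qHTS luciferase splicing reporter: luminescence rises when SMN2 exon 7 is included in transfected HEK293 cells. Compound exposure lasted 30-36 h at 37C, with 4.5 mM final sodium butyrate as control, followed by a ONE-Glo read.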
# Potency means the concentration at half of the fitted maximal effect.
Structure (SMILES),"activity change, positive = activation",Potency
Cc1ccc(-c2nnc(SCC(=O)Nc3ccc4c(c3)oc3ccccc34)n2C)c(Cl)c1,inactive: -83.3%,–
COc1ccc(-n2nc(C(=O)O)nc2-c2ccccc2)cc1,54.5%,–
CCOC(=O)Cc1csc(NC(=O)CSc2nnc(Cc3csc(N)n3)n2C)n1,30.1%,–
CCCCOc1cccc(C2(C(=O)O)CCCC2)c1,32.7%,–
O=S(=O)(c1ccccc1)N1CCN=C1SCc1ccccc1Cl,-29%,–
CSC1=NC2(CCCCC2)CC12C=CC(=O)C=C2,-4.72%,–
O=C(CSc1nnc2c3c4c(sc3ncn12)CCCC4)NCc1ccco1,-40.3%,–
CCOC(=O)C1=C(CC)Nc2ccccc2N=C1NC(=O)c1oc2ccccc2c1C,inactive: -39.1%,–
Nc1ccccc1S(=O)(=O)NC1=NCCCCC1,35.4%,–
Cc1ccc(C)c(OCCOCCN2CCOCC2)c1,44.1%,–
CCOc1ccccc1/C=C/C(=O)c1ccc(Cl)cc1,inactive: -58.2%,–
O=C(O)CC1NC(=O)N(c2ccc(Cl)cc2)C1=O (stereo unspecified),19%,–
COC(=O)c1nc(-n2nc(C)cc2C)ccc1Cl,19.4%,–
CC(=O)Nc1cn(C(C)=O)c(C)n1,26.8%,–
Nc1nc(N2CCN(C(=O)c3ccco3)CC2)nc2ccccc12,–,active: 12.6 µM
CC1Cc2nc(SCC(=O)Nc3nccs3)n(C)c(=O)c2S1 (stereo unspecified),48.2%,–
O=C(Nc1nc(-c2ccc(F)cc2)cs1)c1ccc(N2C(=O)CCC2=O)cc1,-40.5%,–
O=C(Oc1cccc2ccccc12)c1cc(Cl)nc2ccccc12,1.16%,–
Nc1ccc(S(=O)(=O)Nc2ccc(S(N)(=O)=O)cc2)cc1,30.2%,–

# In another format: results already given
Structure (SMILES)	activity change, positive = activation	Potency
O=C(O)CC1NC(=O)N(c2ccc(Cl)cc2)C1=O (stereo unspecified)	19%	–
COC(=O)c1nc(-n2nc(C)cc2C)ccc1Cl	19.4%	–

# Carrying on:

Structure (SMILES),"activity change, positive = activation",Potency
COc1cc(C(=S)N2CCCC2)cc(OC)c1OS(=O)(=O)c1ccc(NC(C)=O)cc1,33.4%,–
Oc1[nH]c2ccccc2c1C=Nc1ccc2c(c1)OCO2,–,active: 0.891 µM
Nc1cc(S(=O)(=O)N2CCCCC2)ccc1Oc1ccccc1,-66.2%,–
CC(C)N(C(=O)CSc1nc2ccccc2n1Cc1ccc(F)cc1)C(C)C,inactive: -41.8%,–
Cc1ccc2nc(-c3ccc(NC(=S)NC(=O)C(C)C)cc3)sc2c1,68.6%,–
FC(F)(F)c1cccc(Nc2ncnc3ccccc23)c1,-21.1%,–
CCc1c(C(=O)Nc2nnc(C3CC3)s2)csc1C,49.5%,–
COc1cc(OC)c2nc(C)c3c(c2c1)N(c1ccc(O)cc1)CC3,-39.7%,–
O=S(=O)(c1ccc2c(c1)OCCO2)N1CCN(c2ncnc3sccc23)CC1,inactive: -84.8%,–
Cc1nn(C)c(C)c1CNC(=O)Nc1cccc(Cl)c1,125%,–
Cc1ccc(S(=O)(=O)NCCOc2nc(N(C)C)nc(N3CCOCC3)n2)cc1,21.7%,–
COC(=O)COc1ccc(S(=O)(=O)Nc2ccc3c(c2)OCO3)cc1,33%,–
COC(=O)c1ccc(NC2=CC(=O)CC(C)(C)C2)cc1,30.7%,–
OC(CNCc1ccc(F)cc1)(c1ccc(F)cc1)c1ccc(F)cc1,-38%,–
NC(=O)c1cccnc1Nc1ccccc1Cl,inactive: -18.8%,–
Cc1ccc(NC(=O)c2oc3c(c2C)C(=O)CC(C)(C)C3)cc1,44.2%,–
COc1ccc(CCN2C(=O)C3C4C=CC(C3C2=O)C2C(=O)N(CCc3ccc(OC)c(OC)c3)C(=O)C42)cc1OC (stereo unspecified),inactive: -107%,–
COc1ccc(CCN/C=C2/CC(=O)NC2=O)cc1OC,36.9%,–
Cc1ccccc1-c1nnc(-c2ccc(Cl)cc2)o1,39.1%,–

Structure (SMILES),"activity change, positive = activation",Potency
Cc1ccc(NC(=O)Nc2cnc3ccccc3c2)cc1,–,active: 12.6 µM
CCOC(=O)c1nn(-c2ccc(OCC)cc2)c2nc(-c3cccc(OC)c3)c(C#N)c(=O)n12,-2.08%,–
COc1cc(/C=N\NC(=O)CNC(=O)c2cccc([N+](=O)[O-])c2)ccc1O,33.3%,–
Cc1[nH]nc(-c2ccc(O)c(C)c2O)c1-c1cnn(-c2ccccc2)c1,37.1%,–
COCCNc1nc(-c2cc3ccccc3o2)cs1,–,active: 3.16 µM
Cc1ccc(C(=O)Nc2ccccc2C(=O)NC(C(=O)O)C(C)C)cc1 (stereo unspecified),–,active: 12.6 µM
CC(C)c1ccc(OCC(=O)NC2=NCCS2)cc1,-34.7%,–
O=C(CSc1nnc(-c2ccccc2Cl)o1)Nc1ccc2c(c1)OCCO2,–,active: 14.1 µM
CC(C)OC(=O)CN1C(=O)C(C)(C)Oc2ccc(C(=O)NC(C)(C)C)cc21,32.2%,–
N#C/C(=C\c1ccc(Sc2ccccc2)o1)c1nc2ccccc2[nH]1,–,active: 11.2 µM
COCCSc1nnc(-c2cccc(C#N)c2)n1C,56.9%,–
CCOc1ccc(-c2nc(CSCC(=O)NCc3ccco3)c(C)o2)cc1,inactive: -64.6%,–
CCN1CCN(S(=O)(=O)c2cc(OCC(=O)NC3CCCCC3)c(C)cc2Cl)CC1,-88.2%,–
O=c1c(Cl)c(NCC2CCCO2)cnn1C12CC3CC(CC(C3)C1)C2 (stereo unspecified),inactive: -42.1%,–
CCOc1ccc(N2C(=O)/C(=C/c3cc(OC)c(OC)c(OC)c3)N(CC(=O)OC)C2=S)cc1,inactive: -39.6%,–
Cc1cccc(NC(=O)CSc2ccc(-c3ccc4c(c3)OCO4)nn2)c1C,inactive: 25.3%,–
COc1ccc(OCC(=O)c2c[nH]c3ccccc23)cc1,inactive: 25.8%,–
O=C(Nc1ccc2c(c1)OCO2)N1CCN(c2ncc(C(F)(F)F)cc2Cl)CC1,-70%,–

# Molecules listed so far with an aryl thioether with sulfur outside any ring:
Structure (SMILES),"activity change, positive = activation",Potency
Cc1ccc(-c2nnc(SCC(=O)Nc3ccc4c(c3)oc3ccccc34)n2C)c(Cl)c1,inactive: -83.3%,–
CCOC(=O)Cc1csc(NC(=O)CSc2nnc(Cc3csc(N)n3)n2C)n1,30.1%,–
O=C(CSc1nnc2c3c4c(sc3ncn12)CCCC4)NCc1ccco1,-40.3%,–
CC1Cc2nc(SCC(=O)Nc3nccs3)n(C)c(=O)c2S1 (stereo unspecified),48.2%,–
CC(C)N(C(=O)CSc1nc2ccccc2n1Cc1ccc(F)cc1)C(C)C,inactive: -41.8%,–
O=C(CSc1nnc(-c2ccccc2Cl)o1)Nc1ccc2c(c1)OCCO2,–,active: 14.1 µM
N#C/C(=C\c1ccc(Sc2ccccc2)o1)c1nc2ccccc2[nH]1,–,active: 11.2 µM
COCCSc1nnc(-c2cccc(C#N)c2)n1C,56.9%,–
Cc1cccc(NC(=O)CSc2ccc(-c3ccc4c(c3)OCO4)nn2)c1C,inactive: 25.3%,–
